In the supplement of paper PMC7024190:
Structures can show the parent of a compound that is named as a salt. The list shows a part of the results. This data set is noisy: repeats of one test often differ as much as different tests do.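 A first-round screen of about ten thousand compounds sought those raising reporter output, using human embryonic kidney cells briefly transfected with a plasmid carrying a Renilla luciferase gene driven by the HSV-TK promoter.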

Tested on: HEK 293FT
Experiment: log relative Renilla luciferase luminescence (reporter expression vs reference, reference not stated) (log (base not stated)); higher = higher recombinant reporter expression
Settings: 10 µM; time after transfection 48 h

SMILES	log
COc1cc(/C=C/C(=O)O)ccc1O [ferulic acid]	-0.00567
CN(C)CCc1c[nH]c2ccc(C[C@H]3COC(=O)N3)cc12 [zolmitriptan]	-0.00168
CN(C)CCC=C1c2ccccc2C=Cc2ccccc21 [cyclobenzaprine hydrochloride]	-0.000954
O=c1[nH]c(=O)n([C@H]2C[C@H](O)[C@@H](CO)O2)cc1F [floxuridine]	-0.154
CNNCc1ccc(C(=O)NC(C)C)cc1 [procarbazine hydrochloride]	-0.114
Nc1ccc(C(=O)Oc2ccccc2)c(O)c1 [phenyl aminosalicylate]	-0.0187
C[n+]1cccc(C(=O)[O-])c1 [trigonelline]	0.00732
O=C(O)c1cc(O)c2c(c1)[C@H]([C@H]1c3cc(C(=O)O)cc(O)c3C(=O)c3c(O[C@@H]4O[C@H](CO)[C@@H](O)[C@H](O)[C@H]4O)cccc31)c1cccc(O[C@@H]3O[C@H](CO)[C@@H](O)[C@H](O)[C@H]3O)c1C2=O [sennoside a]	0.0437
CC(=O)Oc1cc(C(C)C)c(OCCN(C)C)cc1C [moxisylyte hydrochoride]	0.0889
CC(c1cc2ccccc2s1)N(O)C(N)=O (stereo not drawn) [zileuton]	0.019
C[C@@H]1C(=O)O[C@H]2C[C@@]34[C@H]5C[C@@H](C(C)(C)C)[C@]36[C@@H](OC(=O)[C@@H]6O)O[C@@]4(C(=O)O5)[C@]21O [ginkgolide a]	0.00188
CC1=CC(=O)CC(C)(C)C1(O)/C=C/C(C)=C\C(=O)O (mixture of isomers) [abscisic acid (cis,trans; +/-)]	0.0676
NC(=O)c1ncn([C@@H]2O[C@H](CO)[C@@H](O)[C@H]2O)c1N [acadesine]	0.0931
CCC(=O)O[C@H]1[C@H](O[C@@H]2[C@@H](C)[C@H](O[C@H]3C[C@@](C)(OC)[C@@H](O)[C@H](C)O3)[C@@H](C)C(=O)O[C@H](CC)[C@@](C)(O)[C@H](O)[C@@H](C)C(=O)[C@H](C)C[C@@]2(C)O)O[C@H](C)C[C@@H]1N(C)C [erythromycin estolate]	0.17
Nc1ncnc2c1ncn2[C@@H]1O[C@H](COP(=O)(O)O)[C@@H](O)[C@H]1O [adenosine phosphate]	-1.85
CC(=O)Oc1ccccc1C(=O)Nc1ncc([N+](=O)[O-])s1 [nitazoxanide]	-1.08
CCN(CC)CCOC(=O)C1(C2CCCCC2)CCCCC1 [dicyclomine hydrochloride]	-0.00364
O=c1cc(-c2ccccc2)oc2c(O)c(O)ccc12 [7,8-dihydroxyflavone]	-0.123
CCCCOCCOCCOCc1cc2c(cc1CCC)OCO2 [piperonyl butoxide]	0.083
CC(N/C(=N\C#N)Nc1ccncc1)C(C)(C)C (stereo not drawn) [pinacidil]	0.124
CC1(C)OC(=O)C(OCC2CC2)=C1c1ccc(S(C)(=O)=O)cc1 [firocoxib]	0.0404
CCCCC(O)c1ccccc1 (stereo not drawn) [fenipentol]	0.0214

SMILES	log
COc1ccc([C@@H]2CC(=O)c3c(O)cc(O)cc3O2)cc1O [hesperetin]	0.0647
CN(C)CCCN1c2ccccc2Sc2ccc(C(F)(F)F)cc21 [triflupromazine hydrochloride]	-0.069
COc1cc(C(=O)OCCCN2CCCN(CCCOC(=O)c3cc(OC)c(OC)c(OC)c3)CC2)cc(OC)c1OC [dilazep dihydrochloride]	0.1
CC[N+](C)(CC)CCOC(=O)C(O)(c1ccccc1)C1CCCCC1 (stereo not drawn) [oxyphenonium bromide]	0.0256
O=C1c2c(O)cccc2Cc2cccc(O)c21 [anthralin]	-0.175
CO[C@H]1C[C@H](O[C@H]2[C@H](C)O[C@@H](O[C@@H]3/C(C)=C/C[C@@H]4C[C@@H](C[C@]5(C=C[C@H](C)[C@@H](C6CCCCC6)O5)O4)OC(=O)[C@@H]4C=C(C)[C@@H](O)[C@H]5OC/C(=C\C=C\[C@@H]3C)[C@]54O)C[C@@H]2OC)O[C@@H](C)[C@@H]1O [doramectin]	-0.113
O=S(=O)(O)c1cc(N=C=S)ccc1/C=C/c1ccc(N=C=S)cc1S(=O)(=O)O [4,4'-diisothiocyanostilbene-2,2'-sufonic acid sodium salt]	0.0529
CC(=O)OCC(=O)[C@@]1(O)[C@@H](C)C[C@H]2[C@@H]3CCC4=CC(=O)C=C[C@]4(C)[C@@]3(F)[C@@H](O)C[C@@]21C [betamethasone acetate]	-0.0251
CC(=O)Oc1ccc2c(c1OC(C)=O)OCC1(O)Cc3c(cc(OC(C)=O)c(OC(C)=O)c3OC(C)=O)C21 (stereo not drawn) [haematoxylin pentaacetate]	0.084
C[C@@H]1C[C@H]2[C@@H]3C[C@H](F)C4=CC(=O)C=C[C@]4(C)[C@@]3(F)[C@@H](O)C[C@]2(C)[C@@]1(O)C(=O)CO [flumethasone]	-0.0194
O=C(O)Cc1ccc(-c2ccccc2)cc1 [felbinac]	-0.123
O=C(O)c1cn(-c2ccc(F)cc2)c2cc(N3CCNCC3)c(F)cc2c1=O [sarafloxacin hydrochloride]	0.0525
CC[C@H](/C=C/[C@@H](C)[C@H]1CC[C@H]2[C@@H]3CC=C4C[C@@H](O)CC[C@]4(C)[C@H]3CC[C@]12C)C(C)C [stigmasterol]	0.0509
C[N+]1(C)CCC(OC(=O)C(O)(c2ccccc2)C2CCCC2)C1 (stereo not drawn) [glycopyrrolate]	-0.151
CCCCCCCCCCCCCCCCCCOCC(O)CO (stereo not drawn) [batyl alcohol]	0.0573
Clc1ccc(CCC(Cn2ccnc2)Sc2c(Cl)cccc2Cl)cc1 (stereo not drawn) [butoconazole]	-0.0794
CCCCCc1c2c(cc(O)c1C(=O)O)OC(=O)c1c(cc(OC)cc1C(=O)CCCC)O2 [lobaric acid]	-0.156
N#Cc1ccc(C(c2ccc(C#N)cc2)n2cncn2)cc1 [letrozole]	0.106
COC1=C[C@@H](C)[C@@H]2C[C@H]3OC(=O)C[C@H]4C(C)=C(OC)C(=O)[C@H]([C@@]2(C)C1=O)[C@@]34C [quassin]	0.0319
COc1c2occc2cc2ccc(=O)oc12 [methoxsalen]	0.0375
N=C(NCCCCCCNC(=N)NC(=N)Nc1ccc(Cl)cc1)NC(=N)Nc1ccc(Cl)cc1 [chlorhexidine dihydrochloride]	-0.157

Three of these compounds in another layout:
SMILES,log
CN(C)CCCN1c2ccccc2Sc2ccc(C(F)(F)F)cc21 [triflupromazine hydrochloride],-0.069
C[C@@H]1C[C@H]2[C@@H]3C[C@H](F)C4=CC(=O)C=C[C@]4(C)[C@@]3(F)[C@@H](O)C[C@]2(C)[C@@]1(O)C(=O)CO [flumethasone],-0.0194
CCCCCc1c2c(cc(O)c1C(=O)O)OC(=O)c1c(cc(OC)cc1C(=O)CCCC)O2 [lobaric acid],-0.156
